This assay deals with DjlA variant with a C-terminal HA-tag (DjlA-HA) (C. crescentus). The assay can be described thus: affinity purification with mass spectrometry.

These are yes or no findings as the source states them, for the method shown. In cells and extracts the contact can be indirect. These calls come from enrichment with a bait or labelling near it, and not all partners need be listed.

On to AcrB (from UniProt A0A0H3CCS3), for which the binding result is reported as “binds”.

The values above are taken from article doi:10.1101/2023.02.20.529182.
